{"source": "patent US7998474B2", "about": "“Methods for treating an inflammatory disease of the bowel” (Rowett Research Institute, priority 2001, dated 2011)", "assay": "Skeletal (gastrocnemius) muscle accretion in rats", "assay_type": "in vivo, Hooded Lister rats", "settings": "total skeletal muscle taken as approximately 47 times the gastrocnemius weight", "procedure": "Gastrocnemius muscle is taken as representative of skeletal muscle and total skeletal muscle in young Hooded-Lister rats as approximately 47 times the weight of the gastrocnemius muscle (Bardocz et al, 1996). Initial weight of gastrocnemius muscles 804±10 mg wet weight [194±7 mg dry weight] per 100 g initial fresh body weight.\nFurther pieces of jejunum and ileum (15-25 cm from the pylorus and 15-25 cm from the ileo-caecal junction respectively) were collected and frozen in liquid nitrogen for biochemical analysis, as was the remaining small intestine tissue (˜40 cm), liver, spleen, kidney, thymus, lungs, heart and gastrocnemius hind-limb muscles. These were weighed, freeze-dried and reweighed.", "note": "Some results were stated once for a whole list of compounds, not compound by compound.", "data": [{"substance": "Bacteroides thetaiotaomicron [BT]", "values": [{"measurement": "Total skeletal muscle deposited daily (wet weight)", "result": "0.7 to 0.8", "unit": "g"}]}]}
